Measurements reported in PubChem BioAssay AID1259405 (NCATS, 2018).
Assay: 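Knock-downs that lift recombinant protein yield in hamster ovary cells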 (primary screen). System: Chinese hamster CHO-K1 ovary cells with stable secreted eGFP expression. Knock-down reagent: single siRNA against mouse genes, 0.8 pmol siRNA per well (2 µl of 400 nM stock). Timing: 3 days. Measurement: 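Per-well intracellular GFP measured by laser scanning cytometry, plus viability from ATP luminescence, each relative to plate median of non-targeting control wells, in %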. Scale: GFP, % of control: higher = more GFP per well, higher productivity; viability (ATP), % of control: higher = more viable cells (more ATP). Hit rule: 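Called active when intracellular GFP, relative to negative control, is at or above 120%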.
Here is an unselected part of about 50,000 reagents tested. About 4,000 of all reagents (8%) count as active. 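Mouse siRNA library applied to hamster cells; one well for each siRNA.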 The numbers tell different reagents against one gene apart.

gene knocked down	reagent no.	GFP, % of control	viability (ATP), % of control	Outcome
Or6c210 (olfactory receptor family 6 subfamily C member 210)	1	103	75	inactive
Or6c210 (olfactory receptor family 6 subfamily C member 210)	2	68.7	77.3	inactive
Or6c210 (olfactory receptor family 6 subfamily C member 210)	3	92.9	82.4	inactive
Ifih1 (interferon induced with helicase C domain 1)	1	85.4	92.4	inactive
Ifih1 (interferon induced with helicase C domain 1)	2	96.2	105	inactive
Ifih1 (interferon induced with helicase C domain 1)	3	125	113	active
Fgf2os (fibroblast growth factor 2, opposite strand)	1	73.1	67.4	inactive
Fgf2os (fibroblast growth factor 2, opposite strand)	2	75.5	69.3	inactive
Fgf2os (fibroblast growth factor 2, opposite strand)	3	52.8	60.8	inactive
Map4k2 (mitogen-activated protein kinase kinase kinase kinase 2)	1	90.8	90.4	inactive
Bcam (basal cell adhesion molecule)	1	20.2	21.7	inactive
Bcam (basal cell adhesion molecule)	2	78.1	84.9	inactive
Bcam (basal cell adhesion molecule)	3	55.2	84.3	inactive
Mfap1a (microfibrillar-associated protein 1A)	1	73	44.1	inactive
Mfap1a (microfibrillar-associated protein 1A)	2	64.8	87.7	inactive
Mfap1a (microfibrillar-associated protein 1A)	3	72.5	69	inactive
Spaca9 (sperm acrosome associated 9)	1	87.9	97.5	inactive
Spaca9 (sperm acrosome associated 9)	2	128	98.1	active
Spaca9 (sperm acrosome associated 9)	3	68.1	98.5	inactive
H2ac4 (H2A clustered histone 4)	1	61	67.6	inactive
H2ac4 (H2A clustered histone 4)	2	59.9	99.1	inactive
H2ac4 (H2A clustered histone 4)	3	67.6	52.4	inactive
Pltp (phospholipid transfer protein)	1	108	86	inactive
Pltp (phospholipid transfer protein)	2	126	128	active
Pltp (phospholipid transfer protein)	3	81.7	118	inactive
Or12d12 (olfactory receptor family 12 subfamily D member 12)	1	97.5	73.5	inactive
Or12d12 (olfactory receptor family 12 subfamily D member 12)	2	64.9	80.1	inactive
Or12d12 (olfactory receptor family 12 subfamily D member 12)	3	127	65.5	active
Has2 (hyaluronan synthase 2)	1	119	114	inactive
Has2 (hyaluronan synthase 2)	2	103	83.3	inactive
Has2 (hyaluronan synthase 2)	3	130	95.7	active
Orai2 (ORAI calcium release-activated calcium modulator 2)	1	72.7	69.4	inactive
Orai2 (ORAI calcium release-activated calcium modulator 2)	2	64.8	74.9	inactive
Orai2 (ORAI calcium release-activated calcium modulator 2)	3	63.7	88.9	inactive
Golga1 (golgin A1)	1	59.6	56.8	inactive
Golga1 (golgin A1)	2	89.7	53	inactive
Golga1 (golgin A1)	3	64	92.5	inactive

Next part (12 carried over from the part before).
gene knocked down	reagent no.	GFP, % of control	viability (ATP), % of control	Outcome
Or12d12 (olfactory receptor family 12 subfamily D member 12)	1	97.5	73.5	inactive
Or12d12 (olfactory receptor family 12 subfamily D member 12)	2	64.9	80.1	inactive
Or12d12 (olfactory receptor family 12 subfamily D member 12)	3	127	65.5	active
Has2 (hyaluronan synthase 2)	1	119	114	inactive
Has2 (hyaluronan synthase 2)	2	103	83.3	inactive
Has2 (hyaluronan synthase 2)	3	130	95.7	active
Orai2 (ORAI calcium release-activated calcium modulator 2)	1	72.7	69.4	inactive
Orai2 (ORAI calcium release-activated calcium modulator 2)	2	64.8	74.9	inactive
Orai2 (ORAI calcium release-activated calcium modulator 2)	3	63.7	88.9	inactive
Golga1 (golgin A1)	1	59.6	56.8	inactive
Golga1 (golgin A1)	2	89.7	53	inactive
Golga1 (golgin A1)	3	64	92.5	inactive
Ptpn13 (protein tyrosine phosphatase, non-receptor type 13)	1	94.8	83.8	inactive
Ptpn13 (protein tyrosine phosphatase, non-receptor type 13)	2	65.5	64.7	inactive
Ptpn13 (protein tyrosine phosphatase, non-receptor type 13)	3	85.8	78.1	inactive
Lpxn (leupaxin)	1	101	88.9	inactive
Lpxn (leupaxin)	2	110	112	inactive
Slc7a12	1	90.7	61.9	inactive
Slc7a12	2	99	94.5	inactive
Slc7a12	3	102	88.9	inactive
Cnot1 (CCR4-NOT transcription complex, subunit 1)	1	45.5	66	inactive
Cnot1 (CCR4-NOT transcription complex, subunit 1)	2	58.2	43.8	inactive
Cnot1 (CCR4-NOT transcription complex, subunit 1)	3	97.3	86.6	inactive
Ank (progressive ankylosis)	1	118	122	inactive
Ank (progressive ankylosis)	2	67.2	75.8	inactive
Ank (progressive ankylosis)	3	86.5	105	inactive
Ccer1 (coiled-coil glutamate-rich protein 1)	1	89.9	88.4	inactive
Ccer1 (coiled-coil glutamate-rich protein 1)	2	80.3	50.4	inactive
Ccer1 (coiled-coil glutamate-rich protein 1)	3	92.6	71.2	inactive
1700019M22Rik (RIKEN cDNA 1700019M22 gene)	1	101	84.5	inactive
1700019M22Rik (RIKEN cDNA 1700019M22 gene)	2	161	88.5	active
1700019M22Rik (RIKEN cDNA 1700019M22 gene)	3	81.2	47.4	inactive
Stfa2l1 (stefin A2 like 1)	1	117	100	inactive
Stfa2l1 (stefin A2 like 1)	2	45.1	74.2	inactive
Stfa2l1 (stefin A2 like 1)	3	109	106	inactive
Rapgef5 (Rap guanine nucleotide exchange factor (GEF) 5)	1	94	88.8	inactive
Rapgef5 (Rap guanine nucleotide exchange factor (GEF) 5)	2	72	61.2	inactive
Rapgef5 (Rap guanine nucleotide exchange factor (GEF) 5)	3	76	57.6	inactive
Eif2s2 (eukaryotic translation initiation factor 2 subunit 2 beta)	1	72.7	93.8	inactive
Eif2s2 (eukaryotic translation initiation factor 2 subunit 2 beta)	2	75.9	50.5	inactive
Eif2s2 (eukaryotic translation initiation factor 2 subunit 2 beta)	3	71.1	86.7	inactive
Mblac1 (metallo-beta-lactamase domain containing 1)	1	59.9	55.6	inactive
Mblac1 (metallo-beta-lactamase domain containing 1)	2	76.7	75.1	inactive
Mblac1 (metallo-beta-lactamase domain containing 1)	3	91.9	108	inactive
Cbll1 (Cbl proto-oncogene like 1)	1	24	33.6	inactive
Cbll1 (Cbl proto-oncogene like 1)	2	105	95.2	inactive
Cbll1 (Cbl proto-oncogene like 1)	3	90.7	109	inactive
Arhgef3 (Rho guanine nucleotide exchange factor 3)	1	65.1	68.6	inactive
Arhgef3 (Rho guanine nucleotide exchange factor 3)	2	75.4	87	inactive
Arhgef3 (Rho guanine nucleotide exchange factor 3)	3	74.5	84	inactive
Adamts16 (ADAM metallopeptidase with thrombospondin type 1 motif 16)	1	89.5	84.4	inactive
Adamts16 (ADAM metallopeptidase with thrombospondin type 1 motif 16)	2	101	74	inactive
Adamts16 (ADAM metallopeptidase with thrombospondin type 1 motif 16)	3	44.2	14.9	inactive
Pramel12 (PRAME like 12)	1	112	86.9	inactive
Pramel12 (PRAME like 12)	2	113	83.7	inactive
Pramel12 (PRAME like 12)	3	81.9	84.2	inactive
Myh2 (myosin, heavy polypeptide 2, skeletal muscle, adult)	1	67.5	67.7	inactive
Myh2 (myosin, heavy polypeptide 2, skeletal muscle, adult)	2	80.6	72.5	inactive
Myh2 (myosin, heavy polypeptide 2, skeletal muscle, adult)	3	92.9	89.1	inactive
